Assay results: article PMC4341510

Molecular target: TcJAMYC1 (Taxus cuspidata (cell culture line P991)) (UniProt B9VVN9)
Test: competition EMSA
Conditions: 20 mM HEPES-KOH pH 7.9, 20% glycerol, 0.2 mM EDTA, 100 mM KCl, 0.5 mM PMSF, 1 mM DTT, 15 mM MgCl2, 5 ug BSA, 175 fmol probe in 20 ul, gel 7% PAGE, 0.5X TBE, 4 C, recombinant protein, protein details: N-terminal 6xHis (pDEST17)
[1] = 20X vs CATGTG probe, did not compete well

Sequence	binding result [1]	binding result (vs CACGTG probe, did not efficiently compete)
TAGCGCATCGATCAACTGATCGATCG / CGTACGATCGATCAGTTGATCGATGC [CAACTG E-box]	binds more weakly	–
TAGCGCATCGATCAAGTGATCGATCG / CGTACGATCGATCACTTGATCGATGC [CAAGTG E-box]	binds more weakly	–
TAGCGCATCGATCAATTGATCGATCG / CGTACGATCGATCAATTGATCGATGC [CAATTG E-box]	binds more weakly	–
TAGCGCATCGATCACCTGATCGATCG / CGTACGATCGATCAGGTGATCGATGC [CACCTG E-box]	binds more weakly	–
TAGCGCATCGATCATATGATCGATCG / CGTACGATCGATCATATGATCGATGC [CATATG E-box]	binds more weakly	–
TAGCGCATCGATCATCTGATCGATCG / CGTACGATCGATCAGATGATCGATGC [CATCTG E-box]	binds more weakly	–
TAGCGCATCGATCATGTGATCGATCG / CGTACGATCGATCACATGATCGATGC [CATGTG E-box]	–	binds more weakly
TAGCGCATCGATCATTTGATCGATCG / CGTACGATCGATCAAATGATCGATGC [CATTTG E-box]	binds more weakly	–

The exact form of at least one protein or probe is not confirmed. A weaker result is weaker than the reference pair of the same experiment. At least one verdict rests on a figure or table, not on a statement of the authors.
